Source: patent publication US10959968B2, “Methods for treating c-Met-dependent cancers” (Board of Supervisors of Louisiana State University and …, priority 2016, dated 2021)
Some entries share one result that the patent states for a list of compounds.

By UniProt entry, the sequences of proteins in these tests, tags left out. Residues count along the entry.
UniProt P08581, 25-1390: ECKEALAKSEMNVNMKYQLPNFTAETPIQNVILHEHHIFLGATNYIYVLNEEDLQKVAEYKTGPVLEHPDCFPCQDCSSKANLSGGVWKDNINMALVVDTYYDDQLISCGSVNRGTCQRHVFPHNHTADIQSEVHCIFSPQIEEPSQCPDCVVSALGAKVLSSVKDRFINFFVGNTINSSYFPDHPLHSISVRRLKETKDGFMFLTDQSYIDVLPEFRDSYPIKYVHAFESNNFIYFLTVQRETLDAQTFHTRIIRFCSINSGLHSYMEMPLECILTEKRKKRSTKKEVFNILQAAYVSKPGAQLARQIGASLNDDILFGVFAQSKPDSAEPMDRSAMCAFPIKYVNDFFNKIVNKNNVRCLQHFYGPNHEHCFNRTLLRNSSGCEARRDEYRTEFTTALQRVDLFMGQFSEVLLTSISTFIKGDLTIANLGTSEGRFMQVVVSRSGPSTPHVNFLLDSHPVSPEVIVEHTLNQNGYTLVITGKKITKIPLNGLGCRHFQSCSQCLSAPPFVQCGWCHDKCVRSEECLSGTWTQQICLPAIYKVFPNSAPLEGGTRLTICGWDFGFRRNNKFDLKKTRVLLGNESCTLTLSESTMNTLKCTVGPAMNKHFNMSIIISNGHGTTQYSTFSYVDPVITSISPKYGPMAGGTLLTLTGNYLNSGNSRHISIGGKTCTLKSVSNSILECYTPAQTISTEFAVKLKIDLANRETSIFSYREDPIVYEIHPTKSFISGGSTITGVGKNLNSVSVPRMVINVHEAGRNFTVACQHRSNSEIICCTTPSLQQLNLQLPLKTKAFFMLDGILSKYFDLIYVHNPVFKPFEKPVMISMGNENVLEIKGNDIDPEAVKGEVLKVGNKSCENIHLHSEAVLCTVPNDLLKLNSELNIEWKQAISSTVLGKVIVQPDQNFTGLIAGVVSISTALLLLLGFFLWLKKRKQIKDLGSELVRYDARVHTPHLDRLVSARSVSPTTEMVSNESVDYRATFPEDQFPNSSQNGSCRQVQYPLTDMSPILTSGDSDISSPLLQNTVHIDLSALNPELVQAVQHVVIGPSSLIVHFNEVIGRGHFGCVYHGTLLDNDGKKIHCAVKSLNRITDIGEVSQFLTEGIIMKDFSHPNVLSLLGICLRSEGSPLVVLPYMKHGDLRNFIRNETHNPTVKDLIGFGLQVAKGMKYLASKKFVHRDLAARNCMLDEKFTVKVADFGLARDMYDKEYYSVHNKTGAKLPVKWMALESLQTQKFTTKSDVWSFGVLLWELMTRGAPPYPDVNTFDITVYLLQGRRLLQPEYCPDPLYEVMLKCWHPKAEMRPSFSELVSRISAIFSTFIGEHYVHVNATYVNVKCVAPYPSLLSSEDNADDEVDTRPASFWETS

Experiments:
[1] = system: human cancer cell lines; experiment: HGF-induced proliferation across cancer cell lines; format: cell-based; conditions: dose-responsive
[2] = target: wild-type recombinant human c-Met kinase (Homo sapiens, UniProt P08581); experiment: Z′-LYTE c-Met kinase phosphorylation assay, wild type; conditions: wild-type c-Met kinase and its oncogenic variant

| Structure (SMILES) | HGF-induced proliferation across a broad spectrum of human cancer cell lines [1] | concentrations effective at preventing c-Met activation [2] |
| --- | --- | --- |
| COc1cc(CCOC(=O)/C=C/c2cc(OC)c(O)c(OC)c2)ccc1N [Compound 9, (E)-4-amino-3-methoxyphenethyl 3-(4-hydroxy-3,5-dimethoxyphenyl)-acrylate] | significantly inhibit | hundred nanomolar to low micromolar |
| COc1cc(/C=C/C(=O)OCCc2ccc(N)nc2)cc(OC)c1O [Compound 10, (E)-2-(6-aminopyridin-3-yl)ethyl 3-(4-hydroxy-3,5-dimethoxyphenyl)acrylate] | significantly inhibit | – |
| COc1cc(CCOC(=O)/C=C/c2cc(OC)c(O)c(OC)c2)ccc1O [Compound 8, (E)-4-hydroxy-3-methoxyph-ethyl 3-(4-hydroxy-3,5-dimethoxyphenyl) acrylate] | significantly inhibit | – |
